# Measured values reported in paper PMC9887672, “Predicting human cardiac QT alterations and pro-arrhythmic effects of compounds with a 3D beating heart-on-chip platform” (Toxicological Sciences, 2022).
# “Also recorded” adds a separate entry of the source.
# Test system: uHeart 3D cardiac microtissues (h-iPSC-CMs and dermal fibroblasts in fibrin)
# Experiment: Drug screening on uHeart: field potential recording (FPDcF, BP, AMP, arrhythmic events, beating cessation)
smiles,measurement,setting,value
COC(=O)C1=C(C)NC(C)=C(C(=O)OC)C1c1ccccc1[N+](=O)[O-] [Nifedipine],uHearts that ceased beating over uHearts tested,,1 over 3
same,"[%FPDcF] >LOW, drug concentration",concentration causing FPDcF change by 10% vs baseline,0.001 µM
same,"[%FPDcF] >MID, drug concentration",concentration causing FPDcF change by 15% vs baseline,0.005 µM
same,"[%FPDcF]>HIGH, drug concentration",concentration causing FPDcF change by 20% vs baseline,0.01 µM
same,Effect on spike amplitude AMP (in words),incremental doses,decreased the AMP
same,Effect on FPDcF (in words),"incremental doses, change vs baseline",concentration-dependent shortening of the FPDcF; also recorded: tendency to shorten the FPDcF passing the HIGH threshold already at medium dosages
same,TdP risk category proposed from uHeart score,"score vs ratio effective concentration/fETPC, Figure 6D",low-risk
